We go through 104 sequences from PubChem BioAssay AID1347423 (Functional Genomics Laboratory (NCATS/FGL), 2020).

Out of some 52,000 sequences screened, about 210 (0.4%) were called active.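 How the source made its calls: active means gene whose silencing raises cell survival under the drug, median off-target-corrected z-score across its silencing RNAs 2 or more; inactive means the rest.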 Some of the results follow.

The assay is described as follows: Resistance to Poly (ADP-Ribose) Polymerase inhibitor: Gene Identification via Genome-wide siRNA Screen. The note with it: mouse BRCA2 R2336H ES cells, olaparib, CellTiter-Glo viability; active compounds read high. Put shortly:
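Genome-wide siRNA screen (3 siRNAs/gene, 20 nM) in mouse ES cells carrying hypomorphic BRCA2 R2336H; olaparib 500 nM added 48 h post-transfection, CellTiter-Glo viability 72 h later. Normalized to plate-median negative control; MAD z-scores, gene median, seed-adjusted.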
(Cellular ATP, detected with luciferase, serves as a proxy for viable cell number.)
For the sequence “CGCGAAUAAACCAUUUCUGTT against A130023I24Rik”, the z-score was inactive: -0.618.
Consider GCUACAGAACCUGCUCUACTT against Fmip, for which the z-score is inactive: -2.68.
The value for “GCUGCACUUGAAAUCCGAGTT against C630028L02Rik” was inactive: 1.69.
Regarding GGCAGACAGUGAGAUGACATT against Mapk12, the z-score was inactive: -1.89.
The figure for GGUAUUCUGGCAAGACCACTT against Aatf is inactive: -1.01; for GGGAAGUAUUCUGAAAUCUTT against Tsga13 it is inactive: 0.437.
Consider GGUAUCUUGCUUUCUGUGATT against Olfr847, for which the z-score is inactive: 0.00478.
With GGAGGUGAGUAGUAUAGAATT against Pigr, the z-score was inactive: -1.61.
In the case of GCUCUUCCAACCACCUGUATT against Rtn4rl2, the z-score is inactive: -1.08.
The value for GGUUGUUUUGCACAAAUGUTT against Olfr512 was inactive: 0.754; that for GGAUUUUCAAAGAGGACACTT against BC006933 was inactive: 0.609.
On to GAUGUCGAUGCAAAUUCAATT against Fxyd1, for which the z-score was inactive: 0.94.
For the sequence GGUUUUCUUAAAAUAGGAGTT against Tat, the z-score was active: 3.69.
As to GGCACACGGUUUUCAUUAATT against Pcdhb5, the z-score is inactive: -0.354.
For GGCUGACAGACAAGAUUGUTT against Tfb1m, the z-score was inactive: 1.83.
The figure for GGAACAGACAGAGAACACATT against Tgm6 is inactive: -0.154.
Consider “GGGUCAUGAAACCUACCUUTT against 0610007P06Rik”, for which the z-score is inactive: -1.02.
GGAGCACCUUCAGAAAGUUTT against Commd5: the z-score is inactive: -1.67.
GCAUCGACAGUCUCUUCAUTT against Grinl1a: the z-score was inactive: -0.258.
Turning to CCGACUAAUGCUAAAUCCATT against Nspc1, the z-score is inactive: -0.573.
With GGCAUCUGCAUUUGAUUAUTT against BC025546, the z-score is inactive: -0.464.
GGCAAAAACGCGAUGAAGATT against Sync: the z-score is inactive: -0.38.
Regarding GGAAUGUCUCUCUGAAAUATT against Greb1, the z-score was inactive: 0.619.
GGAGAAUGACAAGAACUGCTT against Asah3: the z-score is inactive: 0.639.
In the case of GGAACUGGUGUCAUCUACATT against M6prbp1, the z-score was inactive: -1.68.
On to GGCAAAUCUGAACAACAUUTT against Agt, for which the z-score was inactive: -0.2.
For GGUUCCUUAUUGGUUUCAGTT against Fpr-rs2, the z-score is inactive: 0.0955.
Regarding GGCUUUGAACACCAGUGAATT against Rpp21, the z-score was inactive: -0.285.
Consider GCAGCUUGCUUGAUUCAAGTT against Iqcb1, for which the z-score is inactive: 0.815.
On to “GGCCCUGUGUCAAAUCAGUTT against 3110005P07Rik”, for which the z-score is inactive: 0.151.
Turning to “GCCACAGGUAUGAGAAUGATT against C130068O12Rik”, the z-score was inactive: -0.208.
In the case of GGCAUCUAUUUCUGUGUCUTT against Rdh5, the z-score was inactive: -0.437.
As for GGAUCCAUAAUGUGCAAAATT against Musk, the z-score is inactive: 0.701.
With GGAGGUCCCUCAUUUCAAGTT against Grik4, the z-score was inactive: 2.86.
For GUGAAGAAAUGUUUGACACTT against Raet1b, the z-score is inactive: 0.236.
For GCCUUCAAGACCACAUCCATT against Chst5, the z-score was inactive: 0.739.
Take GGUCGAUGCAAAGAUGCUGTT against Smoc1: the z-score is inactive: 0.505.
The value for CGAUAUCAAGAGUGCAUGATT against Gas6 was inactive: 0.513; that for GCACAUAGAAACGUGUUGGTT against Fnbp1 was inactive: 0.895; that for GGUGGAUAUUCCAUCUAUUTT against Snx14 was inactive: 0.189.
Turning to GGGAGUCUCUUUGACAAUGTT against Dscr3, the z-score is inactive: 0.323.
The value for GGAAAGUACACAAAUGAACTT against Chi3l4 was inactive: 0.038; that for CCUGUGCCUCGCGUCUUAATT against Gdf3 was inactive: -2.17.
For the sequence GCAAUGGAAAAAUCCAGUUTT against Ecg2, the z-score was inactive: -1.81.
In the case of GGUCAAAAUAGUGUCCACCTT against Olfr628, the z-score was inactive: 0.199.
“GGCUCUGCACAACCUUCUATT against 4932435O22Rik”: the z-score was inactive: 1.34.
In the case of “GGCCUGUUGAUUGCAUAUUTT against 2010106G01Rik”, the z-score was inactive: -2.04.
For the sequence GGUUGUAACAAACAUACUCTT against Sstr4, the z-score was inactive: 1.4.
For “GGUCAUCUUACAGUUUAAATT against 1810031K02Rik”, the z-score is inactive: 0.294.
Regarding GGCCAUCAGGUGCAAACUATT against Enc1, the z-score is inactive: 0.471.
As for “GGAGAUGGUUAACCUCAGATT against D4Bwg0951e”, the z-score was inactive: -0.341.
The figure for “CGUCUAUUCGUAAUGAUUUTT against 4930511M11Rik” is inactive: -1.46; for “GCCAGGGUAACUCUCUAGATT against 9130008F23Rik” it is inactive: -1.27; for GGACCUCCGCAUACGAAGATT against Slc12a5 it is inactive: 2.44.
Consider “CCUGGAAUGUAUUUGUUAUTT against 6330571D19Rik”, for which the z-score was inactive: 0.234.
As to GCCGCUUAAGAGGGAUUAUTT against Mrpl15, the z-score was inactive: -2.21.
As for GCUUUUACACUAAUCUAGCTT against Senp8, the z-score is inactive: -0.138.
With GGAAAAAUGUGGACUUCUUTT against Bhmt2, the z-score is inactive: -0.709.
The figure for GGUCAUUCCCAAAAGCAAGTT against Erp29 is inactive: -0.821; for GGACAUUGCAUUGCUCAUGTT against Sec1 it is inactive: -0.065.
Turning to CCAACUGUUUGAGCUCUAUTT against BC049806, the z-score is inactive: -1.36.
On to GGAGUUUGCCGGAAGACUCTT against Ntf3, for which the z-score was inactive: 1.85.
With GGUUCAGAAUUUAACCUUATT against Phc3, the z-score is inactive: -0.98.
With GGACUCACAGUUAAAAGUATT against Gtse1, the z-score is inactive: -0.688.
Regarding “GGAAGUGGAAUAUGUCACCTT against F730004D16Rik”, the z-score is inactive: -0.885.
For GGAAAGAAACUUUACUGAGTT against Olfr1437, the z-score is inactive: -0.284.
The figure for “GGCUGACACACUUCUACAUTT against D630003M21” is inactive: -1.1; for “GCCAGUGUCUUAAAAGUUUTT against C030046M14Rik” it is inactive: -0.715.
With CCUAGUGGCUAUACAAAUATT against Rgn, the z-score was inactive: 0.187.
“GAAGAAAUGAAGACACAAGTT against 1810007E14Rik”: the z-score is inactive: 0.801.
Consider GGCAAGAAGUAUUUCCAUGTT against Fcrl3, for which the z-score is inactive: 1.09.
GCUGAUAACCUGAUCAACGTT against Nars: the z-score is inactive: -1.09.
As for GGGAGUAUUACUCUAUUCUTT against BC043098, the z-score is inactive: -0.679.
Take GGAAUGUGAGCUCAGAUGGTT against Arvcf: the z-score was inactive: 0.0911.
GCAGAUUCCUAUUAAAUGGTT against Fert2: the z-score is inactive: 0.971.
As for “GGGUUUAAUCAUGAUAGAATT against E130014J05Rik”, the z-score is active: 3.95.
Take “GCCCACGUCCUGGUUUAAUTT against 4632404H12Rik”: the z-score was inactive: -0.461.
The figure for GCAAAGUCUAAACUUAGUCTT against Fchsd2 is inactive: -0.155; for “GCUCAACUUUCGAAUGAACTT against 1810057C19Rik” it is inactive: 0.0652; for GGUGGUUGUCAUGACAGUCTT against Tcerg1l it is inactive: -1.25.
With GGAACAGGUUCAUUCAUUGTT against Nup160, the z-score was inactive: -2.52.
The value for GGCUUAUGAGAACUUGGUGTT against Amot was inactive: -0.129; that for GGAAAUAAAGUGAAUGAGGTT against Gtpbp4 was inactive: 0.762.
The figure for GGAGGACUAUAACUAAGAGTT against Ifitm5 is inactive: -0.69; for “GGUUCAACAAAACAGGCUUTT against 0610012A11Rik” it is inactive: -2.01.
The figure for “GCUGUCUCGUCAUUUAAGATT against 4933427L07Rik” is inactive: -0.157; for GGAAUGAAGACAAUUGUACTT against Rnf36 it is inactive: -0.483; for GGAGGAGUGAGUCCUGAGATT against Ifna13 it is inactive: -0.911.
Consider GGCCUCAGAAAAGGAUCGATT against Olfr1500, for which the z-score was inactive: 0.598.
GGGUGAAGGUGAAUAUUUATT against Esm1: the z-score is inactive: 0.508.
The value for GGUGAAGUUAAAAUGAACUTT against Cul2 was inactive: -0.68; that for “GGCUUAACAGAGAAACACCTT against D430025H09Rik” was inactive: -0.922.
As to GCUAGGUACUGGGUUUUGCTT against Adora2b, the z-score is inactive: 0.227.
Take GGUCCCAGCAUGUUUACGUTT against Slc2a12: the z-score was inactive: -0.398.
The value for GGAAAGUGAUGUCACAAAATT against G3bp was inactive: -0.546; that for GAUGAGAGACAAAUUCCCATT against Il11 was inactive: 0.313.
As to GGAUUAAAUGGUGGUGGAGTT against Dnajb6, the z-score was inactive: -0.598.
Take GGAGCGAUACCACAGUUUATT against Rab5b: the z-score is inactive: -0.673.
Regarding GGCCAAGAAGACAAGAAAATT against Ddx54, the z-score was inactive: -2.16.
The figure for GCCCUGAGGAAGGUACUAATT against Olfr479 is inactive: -0.614; for “CGUGAAGCAAGCCUUACCCTT against E030024M05Rik” it is inactive: 0.871.
Consider GGCGAUCCACAGGAACUCUTT against Tiam1, for which the z-score was inactive: 0.0217.
The value for “GGUCUUCUUAGCUUUUUUUTT against E130309F12Rik” was inactive: -0.732; that for “GCUACGAGCAGAUGAUGGATT against 2410030K01Rik” was inactive: -0.686.
